Results taken from patent US9987364B2, “Water-swellable polymers” (Ferring B.V., priority 2002, dated 2018).
At least one compound was matched to its structure with a doubt left.

Experiment: In vitro drug release from pessaries, USP Method XXIII Apparatus 2
Type: physicochemical
Conditions: 37° C., 50 rpm
Procedure: The drug loaded polymer were analysed for in vitro drug release following USP Method XXIII, Apparatus 2 at 37° C., with 50 rpm paddle speed. Drug release was analysed by ultraviolet spectroscopy or high pressure liquid chromatography (HPLC) as appropriate.
Rate of drug release k values of each dissolution profile was determined by calculating the slope of graph % drug release versus square root time. All the linear relationship between % drug release and square root time has R^2 correlation value […].

[1] = from A03003 (CLP) cross-linked polymer pessaries
[2] = from A03030 (LP) linear polymer pessaries

Compound | Rate of drug release, k [1] [minute^−0.5] | Rate of drug release, k [2] [minute^−0.5] | Rate of drug release, k (from A03032 (LP) linear polymer pessaries) [minute^−0.5] | Rate of drug release, k (from A03033 (LP) linear polymer pessaries) [minute^−0.5]
CCC[C@@H]1C[C@@H](C(=O)N[C@@H]([C@H]2O[C@H](SC)[C@H](OP(=O)(O)O)[C@@H](O)[C@H]2O)[C@H](C)Cl)N(C)C1 [CLI, Clindamycin phosphate] | 10.701 | 12.765 | 12.380 | 
CCCCC(C)(O)C/C=C/[C@H]1[C@H](O)CC(=O)[C@@H]1CCCCCCC(=O)OC (mixture of isomers) [MIS, misoprostol] | 4.507 | 4.378 |  | 2.213
